# Assay results taken from the supplement of paper PMC8728848.
# The list shows a part of the results.
# Key:
# Experiment in all cases: glycan array binding signal (z-score within array); higher = stronger binding
# Settings in all cases: glycan notation: IUPAC condensed, linker removed
# [1] = molecular target: GlcNAc(b1-2)Gal(b1-3)GalNAc
# Summary of the method: (§1)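 From the Consortium for Functional Glycomics database, 3228 arrays were curated, keeping only those whose protein sequence was available. Binding is given as a within-array Z-score averaged across arrays sharing a protein sequence and across linkers. Negative Z-scores can be read as non-binding.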
# [2] = molecular target: GlcNAc(b1-2)Man(a1-3)[GlcNAc(b1-2)Man(a1-6)]Man(b1-4)GlcNAc(b1-4)GlcNAc
# Summary of the method: as §1
# [3] = molecular target: GlcNAc(b1-2)Man(a1-3)[GlcNAc(b1-2)Man(a1-6)]Man(b1-4)GlcNAc(b1-4)[Fuc(a1-6)]GlcNAc
# Summary of the method: as §1
# [4] = molecular target: GlcNAc(b1-2)Man(a1-3)[GlcNAc(b1-4)][GlcNAc(b1-2)Man(a1-6)]Man(b1-4)GlcNAc(b1-4)GlcNAc
# Summary of the method: as §1
# [5] = molecular target: GlcNAc(b1-2)Man(a1-3)[GlcNAc(b1-4)][GlcNAc(b1-2)Man(a1-6)]Man(b1-4)GlcNAc(b1-4)[Fuc(a1-6)]GlcNAc
# Summary of the method: as §1
# [6] = molecular target: GlcNAc(b1-2)[GlcNAc(b1-4)]Man(a1-3)[GlcNAc(b1-2)Man(a1-6)]Man(b1-4)GlcNAc(b1-4)GlcNAc
# Summary of the method: as §1
# [7] = molecular target: GlcNAc(b1-2)[GlcNAc(b1-4)]Man(a1-3)[GlcNAc(b1-4)][GlcNAc(b1-2)Man(a1-6)]Man(b1-4)GlcNAc(b1-4)GlcNAc
# Summary of the method: as §1
# [8] = molecular target: GlcNAc(b1-2)[GlcNAc(b1-4)]Man(a1-3)[GlcNAc(b1-4)][GlcNAc(b1-2)[GlcNAc(b1-6)]Man(a1-6)]Man(b1-4)GlcNAc(b1-4)GlcNAc
# Summary of the method: as §1
# [9] = molecular target: GlcNAc(b1-2)[GlcNAc(b1-4)]Man(a1-3)[GlcNAc(b1-4)][GlcNAc(b1-2)[GlcNAc(b1-6)]Man(a1-6)]Man(b1-4)GlcNAc(b1-4)[Fuc(a1-6)]GlcNAc
# Summary of the method: as §1
# [10] = molecular target: GlcNAc(b1-2)[GlcNAc(b1-6)]Man(a1-6)[GlcNAc(b1-2)Man(a1-3)]Man(b1-4)GlcNAc(b1-4)GlcNAc
# Summary of the method: as §1
# [11] = molecular target: GlcNAc(b1-2)[GlcNAc(b1-6)]Man(a1-6)[GlcNAc(b1-2)Man(a1-3)]Man(b1-4)GlcNAc(b1-4)[Fuc(a1-6)]GlcNAc
# Summary of the method: as §1
# [12] = molecular target: GlcNAc(b1-2)[GlcNAc(b1-6)]Man(a1-6)[GlcNAc(b1-4)][GlcNAc(b1-2)Man(a1-3)]Man(b1-4)GlcNAc(b1-4)GlcNAc
# Summary of the method: as §1
# GlcNAc(b1-3)Fuc = molecular target: GlcNAc(b1-3)Fuc
# Summary of the method: as §1
# GlcNAc(b1-3)Gal = molecular target: GlcNAc(b1-3)Gal
# Summary of the method: as §1
# [13] = molecular target: GlcNAc(b1-3)Gal(b1-3)GalNAc
# Summary of the method: as §1
# GlcNAc(b1-3)Gal(b1-4)Glc = molecular target: GlcNAc(b1-3)Gal(b1-4)Glc
# Summary of the method: as §1
# [14] = molecular target: GlcNAc(b1-3)Gal(b1-4)GlcNAc
# Summary of the method: as §1
# [15] = molecular target: GlcNAc(b1-3)Gal(b1-4)GlcNAc(b1-2)Man(a1-3)[GlcNAc(b1-3)Gal(b1-4)GlcNAc(b1-2)Man(a1-6)]Man(b1-4)GlcNAc(b1-4)GlcNAc
# Summary of the method: as §1
# [16] = molecular target: GlcNAc(b1-3)Gal(b1-4)GlcNAc(b1-2)Man(a1-3)[GlcNAc(b1-3)Gal(b1-4)GlcNAc(b1-2)Man(a1-6)]Man(b1-4)GlcNAc(b1-4)[Fuc(a1-6)]GlcNAc
# Summary of the method: as §1
# [17] = molecular target: GlcNAc(b1-3)Gal(b1-4)GlcNAc(b1-2)[GlcNAc(b1-3)Gal(b1-4)GlcNAc(b1-6)]Man(a1-6)[GlcNAc(b1-3)Gal(b1-4)GlcNAc(b1-2)Man(a1-3)]Man(b1-4)GlcNAc(b1-4)GlcNAc
# Summary of the method: as §1
# [18] = molecular target: GlcNAc(b1-3)Gal(b1-4)GlcNAc(b1-3)Gal(b1-4)GlcNAc
# Summary of the method: as §1
# [19] = molecular target: GlcNAc(b1-3)Gal(b1-4)GlcNAc(b1-3)Gal(b1-4)GlcNAc(b1-2)Man(a1-3)[GlcNAc(b1-3)Gal(b1-4)GlcNAc(b1-3)Gal(b1-4)GlcNAc(b1-2)Man(a1-6)]Man(b1-4)GlcNAc(b1-4)GlcNAc
# Summary of the method: as §1
# [20] = molecular target: GlcNAc(b1-3)Gal(b1-4)GlcNAc(b1-3)Gal(b1-4)GlcNAc(b1-2)Man(a1-3)[GlcNAc(b1-3)Gal(b1-4)GlcNAc(b1-3)Gal(b1-4)GlcNAc(b1-2)Man(a1-6)]Man(b1-4)GlcNAc(b1-4)[Fuc(a1-6)]GlcNAc
# Summary of the method: as §1
# [21] = molecular target: GlcNAc(b1-3)Gal(b1-4)GlcNAc(b1-3)Gal(b1-4)GlcNAc(b1-2)[GlcNAc(b1-3)Gal(b1-4)GlcNAc(b1-3)Gal(b1-4)GlcNAc(b1-6)]Man(a1-6)[GlcNAc(b1-3)Gal(b1-4)GlcNAc(b1-3)Gal(b1-4)GlcNAc(b1-2)Man(a1-3)]Man(b1-4)GlcNAc(b1-4)[Fuc(a1-6)]GlcNAc
# Summary of the method: as §1
# [22] = molecular target: GlcNAc(b1-3)Gal(b1-4)GlcNAc(b1-3)Gal(b1-4)GlcNAc(b1-3)Gal(b1-4)GlcNAc(b1-2)Man(a1-3)[GlcNAc(b1-3)Gal(b1-4)GlcNAc(b1-3)Gal(b1-4)GlcNAc(b1-3)Gal(b1-4)GlcNAc(b1-2)Man(a1-6)]Man(b1-4)GlcNAc(b1-4)GlcNAc
# Summary of the method: as §1
# [23] = molecular target: GlcNAc(b1-3)Gal(b1-4)GlcNAc(b1-3)Gal(b1-4)GlcNAc(b1-3)Gal(b1-4)GlcNAc(b1-2)Man(a1-3)[GlcNAc(b1-3)Gal(b1-4)GlcNAc(b1-3)Gal(b1-4)GlcNAc(b1-3)Gal(b1-4)GlcNAc(b1-2)Man(a1-6)]Man(b1-4)GlcNAc(b1-4)[Fuc(a1-6)]GlcNAc
# Summary of the method: as §1
# [24] = molecular target: GlcNAc(b1-3)Gal(b1-4)GlcNAc(b1-3)Gal(b1-4)GlcNAc(b1-3)Gal(b1-4)GlcNAc(b1-2)[GlcNAc(b1-3)Gal(b1-4)GlcNAc(b1-3)Gal(b1-4)GlcNAc(b1-3)Gal(b1-4)GlcNAc(b1-6)]Man(a1-6)[GlcNAc(b1-3)Gal(b1-4)GlcNAc(b1-3)Gal(b1-4)GlcNAc(b1-3)Gal(b1-4)GlcNAc(b1-2)Man(a1-3)]Man(b1-4)GlcNAc(b1-4)[Fuc(a1-6)]GlcNAc
# Summary of the method: as §1
# [25] = molecular target: GlcNAc(b1-3)Gal(b1-4)GlcNAc(b1-3)Gal(b1-4)GlcNAc(b1-3)Gal(b1-4)GlcNAc(b1-3)Gal(b1-4)GlcNAc(b1-2)Man(a1-3)[GlcNAc(b1-3)Gal(b1-4)GlcNAc(b1-3)Gal(b1-4)GlcNAc(b1-3)Gal(b1-4)GlcNAc(b1-3)Gal(b1-4)GlcNAc(b1-2)Man(a1-6)]Man(b1-4)GlcNAc(b1-4)GlcNAc
# Summary of the method: as §1
# [26] = molecular target: GlcNAc(b1-3)Gal(b1-4)GlcNAc(b1-3)Gal(b1-4)GlcNAc(b1-3)Gal(b1-4)GlcNAc(b1-3)Gal(b1-4)GlcNAc(b1-2)Man(a1-3)[GlcNAc(b1-3)Gal(b1-4)GlcNAc(b1-3)Gal(b1-4)GlcNAc(b1-3)Gal(b1-4)GlcNAc(b1-3)Gal(b1-4)GlcNAc(b1-2)Man(a1-6)]Man(b1-4)GlcNAc(b1-4)[Fuc(a1-6)]GlcNAc
# Summary of the method: as §1
# [27] = molecular target: GlcNAc(b1-3)Gal(b1-4)GlcNAc(b1-3)Gal(b1-4)GlcNAc(b1-3)Gal(b1-4)GlcNAc(b1-3)Gal(b1-4)GlcNAc(b1-2)[GlcNAc(b1-3)Gal(b1-4)GlcNAc(b1-3)Gal(b1-4)GlcNAc(b1-3)Gal(b1-4)GlcNAc(b1-3)Gal(b1-4)GlcNAc(b1-6)]Man(a1-6)[GlcNAc(b1-3)Gal(b1-4)GlcNAc(b1-3)Gal(b1-4)GlcNAc(b1-3)Gal(b1-4)GlcNAc(b1-3)Gal(b1-4)GlcNAc(b1-2)Man(a1-3)]Man(b1-4)GlcNAc(b1-4)[Fuc(a1-6)]GlcNAc
# Summary of the method: as §1
# [28] = molecular target: GlcNAc(b1-3)Gal(b1-4)GlcNAc(b1-3)Gal(b1-4)GlcNAc(b1-3)GalNAc
# Summary of the method: as §1
# [29] = molecular target: GlcNAc(b1-3)Gal(b1-4)GlcNAc(b1-3)GalNAc
# Summary of the method: as §1
# [30] = molecular target: GlcNAc(b1-3)Gal(b1-4)GlcNAc(b1-3)[GlcNAc(b1-3)Gal(b1-4)GlcNAc(b1-3)]GalNAc
# Summary of the method: as §1
# [31] = molecular target: GlcNAc(b1-3)Gal(b1-4)GlcNAc(b1-6)[Gal(b1-3)]GalNAc
# Summary of the method: as §1
# [32] = molecular target: GlcNAc(b1-3)Gal(b1-4)GlcNAc(b1-6)[GlcNAc(b1-3)Gal(b1-3)]GalNAc
# Summary of the method: as §1
# [33] = molecular target: GlcNAc(b1-3)Gal(b1-4)GlcNAc(b1-6)[GlcNAc(b1-3)]Gal(b1-4)GlcNAc
# Summary of the method: as §1
# GlcNAc(b1-3)GalNAc = molecular target: GlcNAc(b1-3)GalNAc
# Summary of the method: as §1
# GlcNAc(b1-3)Man = molecular target: GlcNAc(b1-3)Man
# Summary of the method: as §1
# [34] = molecular target: GlcNAc(b1-3)[GlcNAc(b1-4)][GlcNAc(b1-6)]GlcNAc
# Summary of the method: as §1
# [35] = molecular target: GlcNAc(b1-3)[GlcNAc(b1-6)]Gal(b1-4)GlcNAc
# Summary of the method: as §1
# [36] = molecular target: GlcNAc(b1-3)[GlcNAc(b1-6)]GalNAc
# Summary of the method: as §1
# [37] = molecular target: GlcNAc(b1-4)Gal(b1-4)GlcNAc
# Summary of the method: as §1
# GlcNAc(b1-4)GlcNAc = molecular target: GlcNAc(b1-4)GlcNAc
# Summary of the method: as §1
# [38] = molecular target: GlcNAc(b1-4)GlcNAc(b1-4)GlcNAc
# Summary of the method: as §1
# [39] = molecular target: GlcNAc(b1-4)GlcNAc(b1-4)GlcNAc(b1-4)GlcNAc(b1-4)GlcNAc
# Summary of the method: as §1
binder,measurement,setting,value
Agalectin (Anopheles gambiae) (protein) MSNRPFTAKFPRYPENGDEVFIRGKLKDDAKSFSVNFCLPRPAQVAEHQTPPYIALHFKTIYDERDDTSRVVLNWKNLQWQQEEVLDNYWHVDRSQTFRVVFRLHEDCIKVFVNSVDHPPDYQFPVQLPLDQIESIELWDDVEHVEEISFRYDNGNSY,glycan array binding signal (z-score),[1],-1.34
same,glycan array binding signal (z-score),[2],-0.372
same,glycan array binding signal (z-score),[3],-0.122
same,glycan array binding signal (z-score),[4],-1.65
same,glycan array binding signal (z-score),[5],-0.859
same,glycan array binding signal (z-score),[6],0.194
same,glycan array binding signal (z-score),[7],-0.52
same,glycan array binding signal (z-score),[8],-0.389
same,glycan array binding signal (z-score),[9],-0.443
same,glycan array binding signal (z-score),[10],-0.661
same,glycan array binding signal (z-score),[11],-0.445
same,glycan array binding signal (z-score),[12],-0.563
same,glycan array binding signal (z-score),GlcNAc(b1-3)Fuc,-0.403
same,glycan array binding signal (z-score),GlcNAc(b1-3)Gal,-0.156
same,glycan array binding signal (z-score),[13],-0.361
same,glycan array binding signal (z-score),GlcNAc(b1-3)Gal(b1-4)Glc,-0.291
same,glycan array binding signal (z-score),[14],0.151
same,glycan array binding signal (z-score),[15],-0.912
same,glycan array binding signal (z-score),[16],0.28
same,glycan array binding signal (z-score),[17],1.33
same,glycan array binding signal (z-score),[18],-0.107
same,glycan array binding signal (z-score),[19],0.942
same,glycan array binding signal (z-score),[20],1.95
same,glycan array binding signal (z-score),[21],3.5
same,glycan array binding signal (z-score),[22],1.26
same,glycan array binding signal (z-score),[23],-0.198
same,glycan array binding signal (z-score),[24],0.199
same,glycan array binding signal (z-score),[25],3.07
same,glycan array binding signal (z-score),[26],1.25
same,glycan array binding signal (z-score),[27],2.63
same,glycan array binding signal (z-score),[28],-0.362
same,glycan array binding signal (z-score),[29],0.237
same,glycan array binding signal (z-score),[30],1.66
same,glycan array binding signal (z-score),[31],-0.279
same,glycan array binding signal (z-score),[32],-0.092
same,glycan array binding signal (z-score),[33],-0.125
same,glycan array binding signal (z-score),GlcNAc(b1-3)GalNAc,-1.12
same,glycan array binding signal (z-score),GlcNAc(b1-3)Man,-0.455
same,glycan array binding signal (z-score),[34],0.058
same,glycan array binding signal (z-score),[35],0.294
same,glycan array binding signal (z-score),[36],0.051
same,glycan array binding signal (z-score),[37],-0.313
same,glycan array binding signal (z-score),GlcNAc(b1-4)GlcNAc,0.095
same,glycan array binding signal (z-score),[38],0.138
same,glycan array binding signal (z-score),[39],-0.567

# A second format for some results above:
binder	measurement	setting	value
Agalectin (Anopheles gambiae) (protein) MSNRPFTAKFPRYPENGDEVFIRGKLKDDAKSFSVNFCLPRPAQVAEHQTPPYIALHFKTIYDERDDTSRVVLNWKNLQWQQEEVLDNYWHVDRSQTFRVVFRLHEDCIKVFVNSVDHPPDYQFPVQLPLDQIESIELWDDVEHVEEISFRYDNGNSY	glycan array binding signal (z-score)	[12]	-0.563
same	glycan array binding signal (z-score)	[18]	-0.107
